Weaker means in comparison with the reference protein, sequence or condition of that experiment.
Target: yRad52NM (Saccharomyces cerevisiae) (UniProt P06778)
Assay: EMSA
Details: 3 mM Mg acetate; 30 mM Tris-acetate pH 7.5, 3 mM Mg acetate, 20 mM NaCl, 37 C, 15 min, 100 nM labeled ssDNA; 6% PAGE in TBE; recombinant protein; residues …; protein details: C-terminal His6; label: 5'-32P; single-stranded DNA

Chains of the proteins cited; added tags and fusions are not shown. Lines headed by an entry give the natural chain unless they say otherwise; changes in a name come on top.
UniProt P06778: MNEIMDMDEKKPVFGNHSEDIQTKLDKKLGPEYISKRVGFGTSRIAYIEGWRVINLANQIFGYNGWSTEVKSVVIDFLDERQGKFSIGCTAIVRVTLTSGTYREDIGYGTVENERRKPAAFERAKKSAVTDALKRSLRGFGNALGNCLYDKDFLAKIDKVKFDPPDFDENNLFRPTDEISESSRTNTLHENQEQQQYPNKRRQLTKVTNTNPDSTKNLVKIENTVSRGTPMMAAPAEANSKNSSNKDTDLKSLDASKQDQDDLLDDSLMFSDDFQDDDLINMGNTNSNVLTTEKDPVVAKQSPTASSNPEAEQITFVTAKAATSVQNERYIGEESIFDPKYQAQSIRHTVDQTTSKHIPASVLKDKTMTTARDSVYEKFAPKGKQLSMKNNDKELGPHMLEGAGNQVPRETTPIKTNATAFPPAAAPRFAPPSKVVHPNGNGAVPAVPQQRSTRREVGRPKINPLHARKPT

TGGTTGAGTACTCACCAGTCACAGAAAAGCATCTTACGGATGGCATGACAGTAAGAGAATTATGCAGTGC [TSO252]
binding result: binds more weakly

— paper PMC4928909
